# In the supplement of paper PMC8728848:
# The list shows a part of the results.
# B1: cFel (Cyprinus carpio), P68512 (protein)
# chain: LDCTVIDGNLKQIDAGSGSVVGVNNLNETFVLIDNVFTKISGSLKHFSVGPAGQLGVNTANNIFKYQSGGFVQLAGLLKQVDAGGDQIIAGVNMYDDIYCLNMDANNKWPSSNTPWVQINGKLKYYSCGPYSCWGVNSNDQIFIMKDVSSNVCSGSGSFINIPGLLSMIEVATDGSVFGVNSQGNLYQRTGVTRSKPDGTDWISMVACPNGHKHVSFDLGVLWLVCVDGSIRKCILTD
# Experiments:
# Test in all cases: glycan array binding signal (z-score within array); higher = stronger binding
# Conditions in all cases: glycan notation: IUPAC condensed, linker removed
# [1] = molecular target: Gal(a1-6)Glc
# Summary of the method: (§1)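 Negative Z-scores can be read as non-binding. The Z-score is calculated within each array and then averaged across arrays of one protein sequence at different concentrations or buffers and across linkers. Arrays, 3228 in all, were curated from the Consortium for Functional Glycomics database and kept only where the protein sequence was available.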
# [2] = molecular target: Gal(b1-2)Gal
# Summary of the method: as §1
# [3] = molecular target: Gal(b1-3)Gal
# Summary of the method: as §1
# [4] = molecular target: Gal(b1-3)Gal(b1-4)GlcNAc
# Summary of the method: as §1
# [5] = molecular target: Gal(b1-3)GalNAc
# Summary of the method: as §1
# [6] = molecular target: Gal(b1-3)GalNAc(a1-3)[Fuc(a1-2)]Gal(b1-4)Glc
# Summary of the method: as §1
# [7] = molecular target: Gal(b1-3)GalNAc(a1-3)[Fuc(a1-2)]Gal(b1-4)GlcNAc
# Summary of the method: as §1
# [8] = molecular target: Gal(b1-3)GalNAc(b1-3)Gal
# Summary of the method: as §1
# [9] = molecular target: Gal(b1-3)GalNAc(b1-3)Gal(a1-4)Gal(b1-4)Glc
# Summary of the method: as §1
# [10] = molecular target: Gal(b1-3)GalNAc(b1-4)Gal(b1-4)Glc
# Summary of the method: as §1
# [11] = molecular target: Gal(b1-3)GalNAc(b1-4)[Neu5Ac(a2-3)]Gal(b1-4)Glc
# Summary of the method: as §1
# [12] = molecular target: Gal(b1-3)GlcNAc
# Summary of the method: as §1
# [13] = molecular target: Gal(b1-3)GlcNAc(a1-3)Gal(b1-4)GlcNAc
# Summary of the method: as §1
# [14] = molecular target: Gal(b1-3)GlcNAc(a1-6)Gal(b1-4)GlcNAc
# Summary of the method: as §1
# [15] = molecular target: Gal(b1-3)GlcNAc(b1-2)Man
# Summary of the method: as §1
# [16] = molecular target: Gal(b1-3)GlcNAc(b1-2)Man(a1-3)[Gal(b1-3)GlcNAc(b1-2)Man(a1-6)]Man(b1-4)GlcNAc(b1-4)GlcNAc
# Summary of the method: as §1
# [17] = molecular target: Gal(b1-3)GlcNAc(b1-2)Man(a1-3)[Gal(b1-3)GlcNAc(b1-2)Man(a1-6)]Man(b1-4)GlcNAc(b1-4)[Fuc(a1-6)]GlcNAc
# Summary of the method: as §1
# [18] = molecular target: Gal(b1-3)GlcNAc(b1-2)Man(a1-3)[GlcNAc(b1-4)][Gal(b1-3)GlcNAc(b1-2)Man(a1-6)]Man(b1-4)GlcNAc(b1-4)GlcNAc
# Summary of the method: as §1
# [19] = molecular target: Gal(b1-3)GlcNAc(b1-2)[Gal(b1-3)GlcNAc(b1-6)]Man(a1-6)[Gal(b1-3)GlcNAc(b1-2)Man(a1-3)]Man(b1-4)GlcNAc(b1-4)GlcNAc
# Summary of the method: as §1
# [20] = molecular target: Gal(b1-3)GlcNAc(b1-3)Gal(b1-3)GlcNAc
# Summary of the method: as §1
# [21] = molecular target: Gal(b1-3)GlcNAc(b1-3)Gal(b1-4)Glc
# Summary of the method: as §1
# [22] = molecular target: Gal(b1-3)GlcNAc(b1-3)Gal(b1-4)GlcNAc
# Summary of the method: as §1
# [23] = molecular target: Gal(b1-3)GlcNAc(b1-3)Gal(b1-4)GlcNAc(b1-2)Man(a1-3)[Gal(b1-3)GlcNAc(b1-3)Gal(b1-4)GlcNAc(b1-2)Man(a1-6)]Man(b1-4)GlcNAc(b1-4)GlcNAc
# Summary of the method: as §1
# [24] = molecular target: Gal(b1-3)GlcNAc(b1-3)Gal(b1-4)GlcNAc(b1-2)[Gal(b1-3)GlcNAc(b1-3)Gal(b1-4)GlcNAc(b1-6)]Man(a1-6)[Gal(b1-3)GlcNAc(b1-3)Gal(b1-4)GlcNAc(b1-2)Man(a1-3)]Man(b1-4)GlcNAc(b1-4)[Fuc(a1-6)]GlcNAc
# Summary of the method: as §1
# [25] = molecular target: Gal(b1-3)GlcNAc(b1-3)Gal(b1-4)GlcNAc(b1-3)Gal(b1-4)GlcNAc(b1-2)[Gal(b1-3)GlcNAc(b1-3)Gal(b1-4)GlcNAc(b1-3)Gal(b1-4)GlcNAc(b1-6)]Man(a1-6)[Gal(b1-3)GlcNAc(b1-3)Gal(b1-4)GlcNAc(b1-3)Gal(b1-4)GlcNAc(b1-2)Man(a1-3)]Man(b1-4)GlcNAc(b1-4)[Fuc(a1-6)]GlcNAc
# Summary of the method: as §1
# [26] = molecular target: Gal(b1-3)GlcNAc(b1-3)Gal(b1-4)GlcNAc(b1-6)[Gal(b1-3)GlcNAc(b1-3)]Gal(b1-4)Glc
# Summary of the method: as §1
# [27] = molecular target: Gal(b1-3)GlcNAc(b1-3)Gal(b1-4)[Fuc(a1-3)]GlcNAc
# Summary of the method: as §1
# [28] = molecular target: Gal(b1-3)GlcNAc(b1-3)Gal(b1-4)[Fuc(a1-3)]GlcNAc(b1-6)[Gal(b1-3)GlcNAc(b1-3)]Gal(b1-4)Glc
# Summary of the method: as §1
# [29] = molecular target: Gal(b1-3)GlcNAc(b1-3)GalNAc
# Summary of the method: as §1
# [30] = molecular target: Gal(b1-3)GlcNAc(b1-6)Gal(b1-4)GlcNAc
# Summary of the method: as §1
# [31] = molecular target: Gal(b1-3)GlcNAc(b1-6)GalNAc
# Summary of the method: as §1
# [32] = molecular target: Gal(b1-3)GlcNAc(b1-6)[Gal(b1-3)]GalNAc
# Summary of the method: as §1
# [33] = molecular target: Gal(b1-3)GlcNAc6S
# Summary of the method: as §1
# [34] = molecular target: Gal(b1-3)[Fuc(a1-4)]GlcNAc
# Summary of the method: as §1
# [35] = molecular target: Gal(b1-3)[Fuc(a1-4)]GlcNAc(b1-2)Man
# Summary of the method: as §1
# [36] = molecular target: Gal(b1-3)[Fuc(a1-4)]GlcNAc(b1-2)Man(a1-3)[Gal(b1-3)[Fuc(a1-4)]GlcNAc(b1-2)Man(a1-6)]Man(b1-4)GlcNAc(b1-4)[Fuc(a1-6)]GlcNAc
# Summary of the method: as §1
# [37] = molecular target: Gal(b1-3)[Fuc(a1-4)]GlcNAc(b1-3)Gal(b1-3)[Fuc(a1-4)]GlcNAc
# Summary of the method: as §1
# [38] = molecular target: Gal(b1-3)[Fuc(a1-4)]GlcNAc(b1-3)Gal(b1-4)[Fuc(a1-3)]GlcNAc
# Summary of the method: as §1
# [39] = molecular target: Gal(b1-3)[Fuc(a1-4)]GlcNAc(b1-6)GalNAc
# Summary of the method: as §1
# [40] = molecular target: Gal(b1-3)[GlcNAc(b1-6)]GalNAc
# Summary of the method: as §1
# [41] = molecular target: Gal(b1-3)[Neu5Ac(a2-6)]GalNAc
# Summary of the method: as §1
# [42] = molecular target: Gal(b1-3)[Neu5Ac(a2-6)]GlcNAc(b1-4)Gal(b1-4)Glc
# Summary of the method: as §1
# [43] = molecular target: Gal(b1-3)[Neu5Ac(b2-6)]GalNAc
# Summary of the method: as §1
# [44] = molecular target: Gal(b1-4)Gal
# Summary of the method: as §1
# [45] = molecular target: Gal(b1-4)GalNAc(a1-3)[Fuc(a1-2)]Gal(b1-4)GlcNAc
# Summary of the method: as §1
binder,measurement,setting,value
B1,glycan array binding signal (z-score),[1],-0.912
same,glycan array binding signal (z-score),[2],0.505
same,glycan array binding signal (z-score),[3],-0.479
same,glycan array binding signal (z-score),[4],-1.05
same,glycan array binding signal (z-score),[5],-0.974
same,glycan array binding signal (z-score),[6],-0.438
same,glycan array binding signal (z-score),[7],-0.789
same,glycan array binding signal (z-score),[8],1.31
same,glycan array binding signal (z-score),[9],-0.508
same,glycan array binding signal (z-score),[10],-0.944
same,glycan array binding signal (z-score),[11],-1.19
same,glycan array binding signal (z-score),[12],-0.131
same,glycan array binding signal (z-score),[13],1.29
same,glycan array binding signal (z-score),[14],0.772
same,glycan array binding signal (z-score),[15],-1.43
same,glycan array binding signal (z-score),[16],-1.01
same,glycan array binding signal (z-score),[17],-1.57
same,glycan array binding signal (z-score),[18],3.37
same,glycan array binding signal (z-score),[19],-0.869
same,glycan array binding signal (z-score),[20],0.162
same,glycan array binding signal (z-score),[21],-0.176
same,glycan array binding signal (z-score),[22],-0.661
same,glycan array binding signal (z-score),[23],-0.229
same,glycan array binding signal (z-score),[24],-0.039
same,glycan array binding signal (z-score),[25],0.075
same,glycan array binding signal (z-score),[26],0.814
same,glycan array binding signal (z-score),[27],0.016
same,glycan array binding signal (z-score),[28],0.284
same,glycan array binding signal (z-score),[29],1.19
same,glycan array binding signal (z-score),[30],-0.557
same,glycan array binding signal (z-score),[31],-0.336
same,glycan array binding signal (z-score),[32],-0.513
same,glycan array binding signal (z-score),[33],0.394
same,glycan array binding signal (z-score),[34],-0.987
same,glycan array binding signal (z-score),[35],0.702
same,glycan array binding signal (z-score),[36],0.317
same,glycan array binding signal (z-score),[37],-1.68
same,glycan array binding signal (z-score),[38],-0.771
same,glycan array binding signal (z-score),[39],-0.176
same,glycan array binding signal (z-score),[40],-0.444
same,glycan array binding signal (z-score),[41],-0.199
same,glycan array binding signal (z-score),[42],0.299
same,glycan array binding signal (z-score),[43],1.23
same,glycan array binding signal (z-score),[44],0.137
same,glycan array binding signal (z-score),[45],0.995

# A section of the results above:
binder,measurement,setting,value
B1,glycan array binding signal (z-score),[19],-0.869
same,glycan array binding signal (z-score),[20],0.162
